{
  "source": "patent US8969373B2",
  "about": "“HCV protease inhibitors” (Shanghai Tangrun Pharmaceuticals Co., Ltd., priority 2011, dated 2015)",
  "origin": "cited, not measured here",
  "system": "HCV",
  "conditions": "combined with standard treatment, clinical; cited from earlier work",
  "note": "At least one compound was matched to its structure with a doubt left.",
  "data": [
    {"molecule": "CC(C)(C)NC(=O)N[C@H](C(=O)N1C[C@H]2[C@@H]([C@H]1C(=O)NC(CC1CCC1)C(=O)C(N)=O)C2(C)C)C(C)(C)C", "note": "(stereo partly shown) [boceprevir]", "values": [
      {"measurement": "cure rate", "result": "approximately 75%"}
    ]}
  ]
}
